Laboratory results: PubChem BioAssay AID1159584 (Peter MacCallum Cancer Centre, 2016)
This is an unselected part of about 18,000 reagents tested. Not all columns of the deposit are shown. The record does not give: the amount of reagent, the time to read-out.

- Aim: 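Genes whose loss is lethal only together with E-cadherin loss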 (primary screen)
- System: human MCF10A breast epithelial cells, parental and CDH1-null
- Reagents: siRNA against human genes
- Read-out: 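Cell viability by CellTiter-Glo ATP luminescence, each line scaled to the mean of mock wells across plates, then CDH1-null over parental ratio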
- Direction: CDH1-null / parental viability ratio: higher = CDH1-null cells survive relatively better than parental; CDH1-null viability vs mock: higher = more viable CDH1-null cells
- Units: CDH1-null viability vs mock in fraction of mock

{"target gene": "HS3ST3A1 (heparan sulfate-glucosamine 3-sulfotransferase 3A1)", "CDH1-null / parental viability ratio": 0.96, "CDH1-null viability vs mock": 0.54}
{"target gene": "BAGE (B melanoma antigen)", "CDH1-null / parental viability ratio": 0.96, "CDH1-null viability vs mock": 0.86}
{"target gene": "NRXN1 (neurexin 1)", "CDH1-null / parental viability ratio": 1.08, "CDH1-null viability vs mock": 0.96}
{"target gene": "RASGEF1A (RasGEF domain family member 1A)", "CDH1-null / parental viability ratio": 1.09, "CDH1-null viability vs mock": 1.08}
{"target gene": "MNX1 (motor neuron and pancreas homeobox 1)", "CDH1-null / parental viability ratio": 1.54, "CDH1-null viability vs mock": 0.74}
{"target gene": "IL20RB (interleukin 20 receptor subunit beta)", "CDH1-null / parental viability ratio": 0.76, "CDH1-null viability vs mock": 0.62}
{"target gene": "CA8 (carbonic anhydrase 8 (inactive))", "CDH1-null / parental viability ratio": 1.05, "CDH1-null viability vs mock": 0.88}
{"target gene": "SMPD1 (sphingomyelin phosphodiesterase 1)", "CDH1-null / parental viability ratio": 0.96, "CDH1-null viability vs mock": 0.77}
{"target gene": "STARD7-AS1 (STARD7 antisense RNA 1)", "CDH1-null / parental viability ratio": 0.78, "CDH1-null viability vs mock": 0.56}
{"target gene": "MAMDC2 (MAM domain containing 2)", "CDH1-null / parental viability ratio": 1.14, "CDH1-null viability vs mock": 1.06}
{"target gene": "SLC24A2", "CDH1-null / parental viability ratio": 1.02, "CDH1-null viability vs mock": 0.9}
{"target gene": "SRP68 (signal recognition particle 68)", "CDH1-null / parental viability ratio": 0.85, "CDH1-null viability vs mock": 0.61}
{"target gene": "GTF2IRD1 (GTF2I repeat domain containing 1)", "CDH1-null / parental viability ratio": 0.87, "CDH1-null viability vs mock": 0.88}
{"target gene": "SLMAP (sarcolemma associated protein)", "CDH1-null / parental viability ratio": 1.21, "CDH1-null viability vs mock": 0.97}
{"target gene": "EMID1 (EMI domain containing 1)", "CDH1-null / parental viability ratio": 0.9, "CDH1-null viability vs mock": 0.54}
{"target gene": "KCNK7 (potassium two pore domain channel subfamily K member 7)", "CDH1-null / parental viability ratio": 1.28, "CDH1-null viability vs mock": 0.92}
{"target gene": "TRAF3IP2 (TRAF3 interacting protein 2)", "CDH1-null / parental viability ratio": 1.17, "CDH1-null viability vs mock": 0.75}
{"target gene": "ASF1B (anti-silencing function 1B histone chaperone)", "CDH1-null / parental viability ratio": 1.05, "CDH1-null viability vs mock": 0.8}
{"target gene": "ZNF821 (zinc finger protein 821)", "CDH1-null / parental viability ratio": 0.95, "CDH1-null viability vs mock": 1.03}
{"target gene": "WWC3 (WWC family member 3)", "CDH1-null / parental viability ratio": 1.01, "CDH1-null viability vs mock": 0.84}
{"target gene": "EIF1AD", "CDH1-null / parental viability ratio": 1.07, "CDH1-null viability vs mock": 1.1}
{"target gene": "IFITM1 (interferon induced transmembrane protein 1)", "CDH1-null / parental viability ratio": 1.19, "CDH1-null viability vs mock": 0.86}
{"target gene": "SLC20A2", "CDH1-null / parental viability ratio": 1.16, "CDH1-null viability vs mock": 1.04}
{"target gene": "PSMB4 (proteasome 20S subunit beta 4)", "CDH1-null / parental viability ratio": 1.08, "CDH1-null viability vs mock": 0.52}
{"target gene": "F12 (coagulation factor XII)", "CDH1-null / parental viability ratio": 1.12, "CDH1-null viability vs mock": 0.66}
{"target gene": "NUP85 (nucleoporin 85)", "CDH1-null / parental viability ratio": 1.2, "CDH1-null viability vs mock": 0.72}
{"target gene": "BRD7 (bromodomain containing 7)", "CDH1-null / parental viability ratio": 0.96, "CDH1-null viability vs mock": 0.8}
{"target gene": "OR52K2 (olfactory receptor family 52 subfamily K member 2)", "CDH1-null / parental viability ratio": 0.96, "CDH1-null viability vs mock": 0.77}
{"target gene": "PPP1R10 (protein phosphatase 1 regulatory subunit 10)", "CDH1-null / parental viability ratio": 0.8, "CDH1-null viability vs mock": 0.63}
{"target gene": "NAA60 (N-alpha-acetyltransferase 60, NatF catalytic subunit)", "CDH1-null / parental viability ratio": 1.57, "CDH1-null viability vs mock": 0.88}
{"target gene": "TRIM45 (tripartite motif containing 45)", "CDH1-null / parental viability ratio": 0.89, "CDH1-null viability vs mock": 0.87}
{"target gene": "MPV17 (mitochondrial inner membrane protein MPV17)", "CDH1-null / parental viability ratio": 1.19, "CDH1-null viability vs mock": 0.5}
{"target gene": "RC3H2 (ring finger and CCCH-type domains 2)", "CDH1-null / parental viability ratio": 1.02, "CDH1-null viability vs mock": 0.99}
{"target gene": "DEGS2 (delta 4-desaturase, sphingolipid 2)", "CDH1-null / parental viability ratio": 1.35, "CDH1-null viability vs mock": 1}
{"target gene": "NOTCH4 (notch receptor 4)", "CDH1-null / parental viability ratio": 0.85, "CDH1-null viability vs mock": 0.84}
{"target gene": "CCDC158 (coiled-coil domain containing 158)", "CDH1-null / parental viability ratio": 1.05, "CDH1-null viability vs mock": 0.46}
{"target gene": "NKX6-3 (NK6 homeobox 3)", "CDH1-null / parental viability ratio": 1.24, "CDH1-null viability vs mock": 0.68}
{"target gene": "RBMS2 (RNA binding motif single stranded interacting protein 2)", "CDH1-null / parental viability ratio": 1.05, "CDH1-null viability vs mock": 0.96}
{"target gene": "KCNU1 (potassium calcium-activated channel subfamily U member 1)", "CDH1-null / parental viability ratio": 1.45, "CDH1-null viability vs mock": 1.1}
{"target gene": "GP6 (glycoprotein VI platelet)", "CDH1-null / parental viability ratio": 0.95, "CDH1-null viability vs mock": 0.84}
{"target gene": "TAF13 (TATA-box binding protein associated factor 13)", "CDH1-null / parental viability ratio": 1.29, "CDH1-null viability vs mock": 1.1}
{"target gene": "GML (glycosylphosphatidylinositol anchored molecule like)", "CDH1-null / parental viability ratio": 0.86, "CDH1-null viability vs mock": 0.55}
{"target gene": "CPO (carboxypeptidase O)", "CDH1-null / parental viability ratio": 0.91, "CDH1-null viability vs mock": 0.75}
{"target gene": "ATP5F1E (ATP synthase F1 subunit epsilon)", "CDH1-null / parental viability ratio": 1.03, "CDH1-null viability vs mock": 1.11}
{"target gene": "VSTM2A (V-set and transmembrane domain containing 2A)", "CDH1-null / parental viability ratio": 1.01, "CDH1-null viability vs mock": 0.92}

5 of these entries, reformatted.
target gene	CDH1-null / parental viability ratio	CDH1-null viability vs mock
SRP68 (signal recognition particle 68)	0.85	0.61
GTF2IRD1 (GTF2I repeat domain containing 1)	0.87	0.88
SLMAP (sarcolemma associated protein)	1.21	0.97
EMID1 (EMI domain containing 1)	0.9	0.54
KCNK7 (potassium two pore domain channel subfamily K member 7)	1.28	0.92
